# Laboratory results: PubChem BioAssay AID1159584 (Peter MacCallum Cancer Centre, 2016)
# Assay: 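Genes whose loss is lethal only together with E-cadherin loss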 (primary screen)
# Cells: human MCF10A breast epithelial cells, parental and CDH1-null
# Reagents: siRNA against human genes
# Read-out: 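ATP luminescence (CellTiter-Glo) viability per line relative to mean mock wells over all plates, and the ratio of CDH1-null to parental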
# Scale: CDH1-null / parental viability ratio: higher = CDH1-null cells survive relatively better than parental; CDH1-null viability vs mock: higher = more viable CDH1-null cells
# The deposit covers about 18,000 reagents; this is a random part of them. Not all columns of the deposit are shown. Not stated in the record: the amount of reagent, the time to read-out.
gene symbol,CDH1-null / parental viability ratio,CDH1-null viability vs mock (fraction of mock)
CCNE1 (cyclin E1),1.06,0.68
SYTL2 (synaptotagmin like 2),2.05,0.76
PRDM4 (PR/SET domain 4),1.02,0.84
MAPK8IP3 (mitogen-activated protein kinase 8 interacting protein 3),1.08,0.56
LIN37 (lin-37 DREAM MuvB core complex component),0.85,0.82
NANOG (Nanog homeobox),0.94,0.68
QRFPR (pyroglutamylated RFamide peptide receptor),0.84,0.81
DGKK (diacylglycerol kinase kappa),0.79,0.62
OR1D5 (olfactory receptor family 1 subfamily D member 5),0.82,0.62
CHMP1A (charged multivesicular body protein 1A),1.36,0.6
CD244 (CD244 molecule),1.13,1.15
SCGB1D1 (secretoglobin family 1D member 1),0.94,0.58
CCRL2 (C-C motif chemokine receptor like 2),0.83,0.74
ADK (adenosine kinase),1.08,0.98
MIS12 (MIS12 kinetochore complex component),1.11,0.84
OSTF1 (osteoclast stimulating factor 1),0.73,0.6
NDUFB10 (NADH:ubiquinone oxidoreductase subunit B10),0.78,0.7
RBPJ,0.96,0.91
GAS7 (growth arrest specific 7),0.93,0.95
JAK1 (Janus kinase 1),0.98,0.94
SPDYE3 (speedy/RINGO cell cycle regulator family member E3),1.01,0.74
TMEM132E (transmembrane protein 132E),1.04,0.54

A run of entries from the list above, for reference:
gene symbol,CDH1-null / parental viability ratio,CDH1-null viability vs mock (fraction of mock)
ADK (adenosine kinase),1.08,0.98
MIS12 (MIS12 kinetochore complex component),1.11,0.84
OSTF1 (osteoclast stimulating factor 1),0.73,0.6
NDUFB10 (NADH:ubiquinone oxidoreductase subunit B10),0.78,0.7
RBPJ,0.96,0.91
GAS7 (growth arrest specific 7),0.93,0.95

More reagents follow.
gene symbol,CDH1-null / parental viability ratio,CDH1-null viability vs mock (fraction of mock)
CEND1 (cell cycle exit and neuronal differentiation 1),1.1,0.9
MPDZ (multiple PDZ domain crumbs cell polarity complex component),1.05,0.97
PNLIP (pancreatic lipase),0.97,0.9
DNAJC8 (DnaJ heat shock protein family (Hsp40) member C8),1.02,0.56
CLVS2 (clavesin 2),1.48,0.92
RGL2 (ral guanine nucleotide dissociation stimulator like 2),1.15,0.82
STPG1 (sperm tail PG-rich repeat containing 1),0.83,0.6
METTL27 (methyltransferase like 27),0.97,0.95
NDUFB9 (NADH:ubiquinone oxidoreductase subunit B9),0.75,0.69
UGT2B4 (UDP glucuronosyltransferase family 2 member B4),0.77,0.57
PNPO (pyridoxamine 5'-phosphate oxidase),1.08,0.92
RHNO1 (RAD9-HUS1-RAD1 interacting nuclear orphan 1),0.86,0.64
STEAP2 (STEAP2 metalloreductase),1.16,1.06
TBC1D5 (TBC1 domain family member 5),1.19,0.38
KLF5 (KLF transcription factor 5),1.12,1.19
CHMP4A (charged multivesicular body protein 4A),1.23,0.86
DNAJC1 (DnaJ heat shock protein family (Hsp40) member C1),1.21,0.69
DRC2 (dynein regulatory complex subunit 2),1.09,1
TRIM60 (tripartite motif containing 60),0.96,0.98
SLC38A7,1.06,1.06
ITCH (itchy E3 ubiquitin protein ligase),1.18,0.66
DEF8 (differentially expressed in FDCP 8 homolog),1.03,0.8
NKX2-3 (NK2 homeobox 3),0.91,0.82
SSH2 (slingshot protein phosphatase 2),1.25,0.96
TLR8 (toll like receptor 8),1.07,0.63
RNF141 (ring finger protein 141),0.99,0.96
CUL3 (cullin 3),1,0.88
PLIN1 (perilipin 1),0.96,0.8
PTOV1 (PTOV1 extended AT-hook containing adaptor protein),1.28,0.64
WDHD1 (WD repeat and HMG-box DNA binding protein 1),0.85,0.33
CLTA (clathrin light chain A),0.87,0.65
GYG1 (glycogenin 1),0.85,0.7
"ANLN (anillin, actin binding protein)",1.14,0.4
MPZL1 (myelin protein zero like 1),1.14,0.89
NLRC4 (NLR family CARD domain containing 4),1.27,0.62
GATA1 (GATA binding protein 1),0.54,0.38
PADI3 (peptidyl arginine deiminase 3),0.7,0.57
SFXN2 (sideroflexin 2),1.02,0.61
"SART3 (spliceosome associated factor 3, U4/U6 recycling protein)",1.22,0.93
NDUFV1-DT (NDUFV1 divergent transcript),0.81,0.65
TTC3 (tetratricopeptide repeat domain 3),0.98,0.89
TSC22D1 (TSC22 domain family member 1),1.09,0.7
DDX41 (DEAD-box helicase 41),0.94,0.68
ZNF69 (zinc finger protein 69),1.24,0.62
RETREG1 (reticulophagy regulator 1),0.85,0.67
NUMBL (NUMB like endocytic adaptor protein),1.09,0.5
